Experimental data: US20070134261A1, “Effectors of innate immunity” (priority 2001, published 2007)
At least one peptide structure holds a part that was inferred or is arguable (an end, a ring closure or a residue). Residues, ends and D or L forms follow the SMILES beside them. No end group written: not given here.

Key:
[1] = assay type: cell-based; details: overnight, 96-well plate; for MIC, P. aerug.: Pseudomonas aeruginosa; for MIC, C. rhod.: Citobacter rhodensis; for MIC, EHEC: Enterohaemorrhagic E. coli; for MIC, E. coli: Escherichia coli; for MIC, S. typhim.: Salmonella enteritidis ssp. typhimurium
BALB/c mice = assay: Lethal endotoxemia in galactosamine-sensitized BALB/c mice; assay type: in vivo; details: 2 μg LPS; peptide 200 μg/mouse = 8 mg/kg IP 15 min after LPS; 48 hours; no peptide 10
[2] = tested on: A549 human epithelial cells; assay: Induction of chemokines (IL-8, MCP-1) in A549 cells (ELISA); assay type: cell-based; details: peptide 10 ug/ml, 24 hr
Protocol: The murine macrophage cell line RAW 264.7, THP-1 cells (human monocytes), a human epithelial cell line (A549), human bronchial epithelial cells (16HBEo14), and whole human blood were used. HBE cells were grown in MEM with Earle's. THP-1 cells were grown and maintained in RPMI 1640 medium. The RAW and A549 cell lines were maintained in DMEM supplemented with 10% fetal calf serum. […] DMEM was aspirated from cells grown overnight and replaced with fresh medium. After incubation of the cells with peptide, the release of chemokines into the culture supernatant was determined by ELISA (R&D Systems, Minneapolis, Minn.).

[3] = tested on: RAW 264.7 mouse macrophage cells; assay type: cell-based; details: Peptide 20 μg/ml; 100 ng/ml E. coli 0111:B4 LPS, 6 h
Salmonella = Salmonella infection in BALB/c mice (viable bacteria in spleen); assay type: in vivo, mouse; details: mouse, in vivo, ip
Protocol: (§1) BALB/c mice were given 1×10^5 Salmonella and cationic peptide (200 μg) by intraperitoneal injection. The mice were monitored for 24 hours at which point they were euthanized, the spleen removed, homogenized and resuspended in PBS and plated on Luria Broth agar plates with Kanamycin (50 μg/ml). The plates were incubated overnight at 37° C. and counted for viable bacteria (Table 49 and 50). CD-1 mice were given 1×10^8 S. aureus in 5% porcine mucin and cationic peptide (200 μg) by intraperitoneal injection (Table 51). The mice were monitored for 3 days at which point they were euthanized, blood removed and plated for viable counts. CD-1 male mice were given 5.8×10^6 CFU EHEC bacteria and cationic peptide (200 μg) by intraperitoneal (IP) injection and monitored for 3 days (Table 52). […] Many of the cationic peptides were shown not to be directly antimicrobial as tested by the Minimum Inhibitory Concentration (MIC) assay (Table 54).

S. aureus = assay: Murine S. aureus infection model (CD-1 mice); assay type: in vivo, mouse; details: peptide 200 μg IP; No Peptide 6/8
Protocol: as §1

A549 epithelial cells = assay: Human Operon arrays (PRHU04-S1) of A549 cells treated with peptide alone (Tables 31-37, 53); details: 4 h
[4] = tested on: A549 human epithelial cell line; assay: Polynucleotide array (Human Operon) of A549 cells incubated with E. coli O111:B4 LPS with or without peptide; assay type: cell-based; details: 50 μg/ml, 4 h
Protocol: The A549 human epithelial cell line was maintained in DMEM (Gibco) supplemented with 10% fetal bovine serum (FBS, Medicorp). […] Total RNA was isolated using RNAqueous (Ambion, Austin, Tex.). […] DNA contamination was removed with DNA-free kit, Ambion).
A “homemade” program was used to remove background. The program calculates the bottom 10% intensity for each subgrid and subtracts this for each grid.
Peptide (50 μg/ml) and LPS (0.1 μg/ml) or LPS alone was incubated with the A549 cells for 4 h and the RNA was isolated. Five μg total RNA was used to make Cy3/Cy5 labeled cDNA probes and hybridized onto Human Operon arrays (PRHU04). The intensity of unstimulated cells is shown in the third column of Table 1. The “Ratio: LPS/control” column refers to the intensity of polynucleotide expression in LPS simulated cells divided by in the intensity of unstimulated cells. The “Ratio: LPS+ID 27/control” column refers to the intensity of polynucleotide expression in cells stimulated with LPS and peptide divided by unstimulated cells.
Peptide and LPS or LPS alone was incubated with the A549 cells for 4 h and the RNA was isolated. 5 μg total RNA was used to make Cy3/Cy5 labeled cDNA probes and hybridized onto Human Operon arrays (PRHU04). The intensity of unstimulated cells is shown in the third column of Table 2. The “Ratio: LPS/control” column refers to the intensity of polynucleotide expression in LPS-simulated cells divided by in the intensity of unstimulated cells. The other columns refer to the intensity of polynucleotide expression in cells stimulated with LPS and peptide divided by unstimulated cells.

## RKMVKVDVRGIMIRKDRR [SEQ ID NO: 29]
[1]
  MIC, P. aerug.: >
BALB/c mice
  Survival: 0%

## CC[C@H](C)[C@H](NC(=O)[C@H](CC(C)C)NC(=O)[C@H](C)NC(=O)[C@@H]1CCCN1C(=O)[C@H](CC(C)C)NC(=O)CNC(=O)[C@@H](NC(=O)[C@@H](NC(=O)[C@H](CC(C)C)NC(=O)[C@@H](NC(=O)[C@H](CCCCN)NC(=O)[C@H](CCCCN)NC(=O)[C@H](CC(C)C)NC(=O)[C@H](C)NC(=O)[C@H](CCCCN)NC(=O)[C@H](CCSC)NC(=O)[C@H](CC(C)C)NC(=O)[C@H](CCSC)NC(=O)[C@H](CCCCN)NC(=O)[C@H](CC(C)C)NC(=O)[C@H](Cc1ccccc1)NC(=O)[C@H](CO)NC(=O)[C@H](CCCCN)NC(=O)[C@H](CO)NC(=O)[C@@H](N)CCCCN)C(C)C)[C@@H](C)O)[C@@H](C)O)C(=O)N[C@@H](CO)C(=O)O [SEQ ID NO: 41]
[2]
  IL-8: 0.371 ng/mL
[3]
  Inhibition of TNF-α: 86 ± 0.37%
BALB/c mice
  Survival: 0%

## KQKLFAKMLMSALKKKTLVTTPLAGK [SEQ ID NO: 45]
BALB/c mice
  Survival: 0%

## KWKSYAHTIMSPVRLIFHTALKPISS [SEQ ID NO: 48]
Salmonella
  Viable Bacteria in the Spleen: 1.98 ± 0.18 × 10^4 CFU/ml
[2]
  IL-8: 0.262 ng/mL
[3]
  Inhibition of TNF-α: 64 ± 0.67%

## CC[C@H](C)[C@H](NC(=O)CNC(=O)[C@H](CCCNC(=N)N)NC(=O)[C@H](CCSC)NC(=O)[C@H](CO)NC(=O)[C@@H](NC(=O)[C@H](CCCNC(=N)N)NC(=O)[C@H](CCCNC(=N)N)NC(=O)[C@@H](NC(=O)[C@H](CS)NC(=O)[C@H](Cc1c[nH]cn1)NC(=O)[C@@H](N)CCCNC(=N)N)[C@@H](C)CC)C(C)C)C(=O)N[C@H](C(=O)N[C@@H](CCSC)C(=O)N[C@@H](CCCNC(=N)N)C(=O)N[C@@H](CCCNC(=N)N)C(=O)N[C@@H](CS)C(=O)N[C@@H](CCCCN)C(=O)O)[C@@H](C)CC [SEQ ID NO: 38] (H-RHCIRRVSMRGIIMRRCK-OH)
BALB/c mice
  Survival: 0%

## RRARIVPAIPVARR [SEQ ID NO: 9]
Salmonella
  Viable Bacteria in the Spleen: 1.23 ± 0.87 × 10^4 CFU/ml
[1]
  MIC, C. rhod.: >
  MIC, EHEC: >
  MIC, E. coli: >
  MIC, P. aerug.: >
  MIC, S. typhim.: >
S. aureus
  # Mice Survived (3 days)/Total mice in group: 4/4

## KRTAIKKVSRRGMSVKARR [SEQ ID NO: 37]
Salmonella
  Viable Bacteria in the Spleen: 1.57 ± 0.44 × 10^4 CFU/ml
[1]
  MIC, C. rhod.: >
  MIC, EHEC: >
  MIC, E. coli: >
  MIC, P. aerug.: >
  MIC, S. typhim.: >
A549 epithelial cells; 50 μg/ml
  Fold Up regulation of Gene Expression relative to Untreated Cells: Cell cycle gene (S70622): 0.7 fold
  Fold Up regulation of Gene Expression relative to Untreated Cells: Dehydrogenase (D17793): 0.9 fold
  Fold Up regulation of Gene Expression relative to Untreated Cells: Forkhead protein (AF042832): 0.9 fold
  Fold Up regulation of Gene Expression relative to Untreated Cells: Homeobox protein (AC004774): 1.7 fold
  Fold Up regulation of Gene Expression relative to Untreated Cells: IL-10 Receptor (U00672): 0.5 fold
  Fold Up regulation of Gene Expression relative to Untreated Cells: KIAA0284 Protein (AB006622): 1.3 fold
  Fold Up regulation of Gene Expression relative to Untreated Cells: Peroxisome factor (AB013818): 1.4 fold
  Fold Up regulation of Gene Expression relative to Untreated Cells: Polypeptide (AF105424): 1.0 fold
  Fold Up regulation of Gene Expression relative to Untreated Cells: Protein (AL050261): 1.0 fold
  Fold Up regulation of Gene Expression relative to Untreated Cells: Receptor (AF112461): 1.9 fold
  Fold Up regulation of Gene Expression relative to Untreated Cells: SPR1 protein (AB031480): 1.3 fold
  Fold Up regulation of Gene Expression relative to Untreated Cells: Transferase (AF038664): 0.1 fold
  Fold Up regulation of Gene Expression relative to Untreated Cells: Transferase (M63509): 1.0 fold
  Fold Up regulation of Gene Expression relative to Untreated Cells: Unknown (AL096803): 0.6 fold
  Fold Up regulation of Gene Expression relative to Untreated Cells: Zinc finger protein (AF061261): 1.0 fold
S. aureus
  # Mice Survived (3 days)/Total mice in group: 4/4
BALB/c mice
  Survival: 0%

## RRDCRRVMVRGIDIKAK [SEQ ID NO: 36]
[1]
  MIC, P. aerug.: >

## TTLGPVKRDSIPGE [SEQ ID NO: 14]
Salmonella
  Viable Bacteria in the Spleen: 2.11 ± 0.23 × 10^3 CFU/ml
[1]
  MIC, C. rhod.: >
  MIC, EHEC: >
  MIC, E. coli: >
  MIC, P. aerug.: >
  MIC, S. typhim.: >

## KWKSFLRTFKSPVRTVFHTALKPISS [SEQ ID NO: 53]
[2]
  IL-8: 0.377 ng/mL
[3]
  Inhibition of TNF-α: 46.5 ± 1.3%

## RREAIRRVAMRGRDMKRMRR [SEQ ID NO: 31]
[1]
  MIC, C. rhod.: >
  MIC, E. coli: >
  MIC, S. typhim.: >

## KCKLFKKMLMLALKKVLTTGLPALKLTK [SEQ ID NO: 40]
[2]
  IL-8: 0.478 ng/mL
[3]
  Inhibition of TNF-α: 75 ± 0.45%

## RRAWWKAWWARRK [SEQ ID NO: 20]
Salmonella
  Viable Bacteria in the Spleen: 2.78 ± 0.22 × 10^4 CFU/ml
S. aureus
  # Mice Survived (3 days)/Total mice in group: 4/4

## KKDAIKKVDIRGMDMRRAR [SEQ ID NO: 28]
[1]
  MIC, E. coli: >
  MIC, P. aerug.: >

## KNKAFAKMLMKALKKVTTAAKPLTG [SEQ ID NO: 44]
BALB/c mice
  Survival: 0%

## ELPLKRGRVPVE [SEQ ID NO: 16]
[1]
  MIC, C. rhod.: >
  MIC, EHEC: >
  MIC, E. coli: >
  MIC, P. aerug.: >
  MIC, S. typhim.: >
A549 epithelial cells; peptide 50 μg/ml, A549 cells
  ID#:ctrl intensity ratio, AB006622 KIAA0284 protein: 5.5
  ID#:ctrl intensity ratio, AB020683 KIAA0876 protein: 2.9
  ID#:ctrl intensity ratio, AB023188 KIAA0971 protein: 10.6
  ID#:ctrl intensity ratio, AB023197 KIAA0980 protein: 2.2
  ID#:ctrl intensity ratio, AB023215 KIAA0998 protein: 6.6
  ID#:ctrl intensity ratio, AJ000512 serum/glucocorticoid regulated kinase: 3.9
  ID#:ctrl intensity ratio, D50926 KIAA0136 protein: 4.4
  ID#:ctrl intensity ratio, X75311 mevalonate kinase: 4.0
  ID#:ctrl intensity ratio, X78712 glycerol kinase pseudogene 2: 2.2
[4]; AB007856 FEM-1-like death receptor binding protein
  Ratio: LPS + ID/Ctrl: 3.38
[4]; AB007896 putative L-type neutral amino acid transporter
  Ratio: LPS + ID/Ctrl: 2.15
[4]; AB010894 BAI1-associated protein
  Ratio: LPS + ID/Ctrl: 1.03
[4]; AB023198 KIAA0981 protein
  Ratio: LPS + ID/Ctrl: 0.81
[4]; AB037722 Unknown
  Ratio: LPS + ID/Ctrl: 0.30
[4]; AC004849 Unknown
  Ratio: LPS + ID/Ctrl: 2.70
[4]; AF095687 brain and nasopharyngeal carcinoma susceptibility protein
  Ratio: LPS + ID/Ctrl: 0.03
[4]; AK000353 cytosolic ovarian carcinoma ag 1
  Ratio: LPS + ID/Ctrl: 1.73
[4]; AL031983 Unknown
  Ratio: LPS + ID/Ctrl: 6.91
[4]; AL137376 Unknown
  Ratio: LPS + ID/Ctrl: 1.30
[4]; D87451 ring finger protein
  Ratio: LPS + ID/Ctrl: 3.68
[4]; J05068 transcobalamin 1
  Ratio: LPS + ID/Ctrl: 4.34
[4]; L04510 ADP-ribosylation factor
  Ratio: LPS + ID/Ctrl: 2.44
[4]; L19185 thioredoxin-dependent peroxide reductase 1
  Ratio: LPS + ID/Ctrl: 2.15
[4]; M54915 pim-1 oncogene
  Ratio: LPS + ID/Ctrl: 1.25
[4]; M95678 phospholipase C beta 2
  Ratio: LPS + ID/Ctrl: 0.05
[4]; NM_001148 ankyrin 2_neuronal
  Ratio: LPS + ID/Ctrl: 0.04
[4]; NM_016382 NK cell activation inducing ligand NAIL
  Ratio: LPS + ID/Ctrl: 0.59
[4]; U52522 partner of RAC1
  Ratio: LPS + ID/Ctrl: 0.48
[4]; U78166 Ric like
  Ratio: LPS + ID/Ctrl: 16.88
[4]; X03066 MHC class II DO beta
  Ratio: LPS + ID/Ctrl: 12.13
[4]; X06614 retinoic acid receptor_alpha
  Ratio: LPS + ID/Ctrl: 1.43
[4]; X07173 inter-alpha inhibitor H2
  Ratio: LPS + ID/Ctrl: 0.03
[4]; X16940 smooth muscle enteric actin γ2
  Ratio: LPS + ID/Ctrl: 0.05
BALB/c mice
  Survival: 0%
